In article PMC10526669:
These are yes or no findings as the source states them, for the method shown. In cells and extracts the contact can be indirect. Some results given as binding are weak or reduced against the parent protein; the word gives no strength.

The chains behind the UniProt entries cited, without tags or fusion partners.
UniProt P40763: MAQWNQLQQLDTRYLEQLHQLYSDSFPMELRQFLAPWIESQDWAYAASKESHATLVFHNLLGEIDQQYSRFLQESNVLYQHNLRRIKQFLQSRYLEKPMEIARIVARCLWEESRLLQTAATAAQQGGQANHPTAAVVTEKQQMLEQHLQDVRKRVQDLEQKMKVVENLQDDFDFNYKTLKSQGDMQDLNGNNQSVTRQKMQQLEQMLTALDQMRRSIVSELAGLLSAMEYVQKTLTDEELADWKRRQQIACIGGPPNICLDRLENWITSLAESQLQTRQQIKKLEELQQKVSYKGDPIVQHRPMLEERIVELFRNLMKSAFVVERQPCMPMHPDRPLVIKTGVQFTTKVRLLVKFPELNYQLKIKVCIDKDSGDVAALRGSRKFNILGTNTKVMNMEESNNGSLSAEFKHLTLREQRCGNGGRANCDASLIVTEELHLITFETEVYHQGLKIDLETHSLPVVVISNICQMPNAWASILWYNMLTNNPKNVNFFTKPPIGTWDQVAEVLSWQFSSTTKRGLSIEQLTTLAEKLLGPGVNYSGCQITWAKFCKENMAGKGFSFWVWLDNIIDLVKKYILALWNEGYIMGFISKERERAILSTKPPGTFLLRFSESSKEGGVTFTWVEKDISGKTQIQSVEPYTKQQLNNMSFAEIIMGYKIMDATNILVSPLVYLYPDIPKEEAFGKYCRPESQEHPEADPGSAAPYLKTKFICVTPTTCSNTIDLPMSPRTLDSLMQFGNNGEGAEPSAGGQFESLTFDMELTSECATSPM
UniProt Q60960: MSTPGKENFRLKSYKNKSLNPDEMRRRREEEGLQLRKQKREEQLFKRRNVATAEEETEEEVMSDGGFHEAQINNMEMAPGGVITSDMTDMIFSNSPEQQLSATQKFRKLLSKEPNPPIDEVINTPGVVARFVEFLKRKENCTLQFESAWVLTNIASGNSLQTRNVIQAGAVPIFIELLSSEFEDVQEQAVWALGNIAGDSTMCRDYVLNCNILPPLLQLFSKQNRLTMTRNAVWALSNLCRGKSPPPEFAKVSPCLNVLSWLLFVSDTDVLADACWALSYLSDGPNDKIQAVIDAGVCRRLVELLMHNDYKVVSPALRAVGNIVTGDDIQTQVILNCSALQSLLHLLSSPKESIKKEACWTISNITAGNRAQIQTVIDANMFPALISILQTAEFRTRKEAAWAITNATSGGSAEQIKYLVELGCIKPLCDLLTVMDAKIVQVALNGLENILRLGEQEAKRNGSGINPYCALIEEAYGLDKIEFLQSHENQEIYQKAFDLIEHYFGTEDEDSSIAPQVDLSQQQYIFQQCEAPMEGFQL
UniProt P42227: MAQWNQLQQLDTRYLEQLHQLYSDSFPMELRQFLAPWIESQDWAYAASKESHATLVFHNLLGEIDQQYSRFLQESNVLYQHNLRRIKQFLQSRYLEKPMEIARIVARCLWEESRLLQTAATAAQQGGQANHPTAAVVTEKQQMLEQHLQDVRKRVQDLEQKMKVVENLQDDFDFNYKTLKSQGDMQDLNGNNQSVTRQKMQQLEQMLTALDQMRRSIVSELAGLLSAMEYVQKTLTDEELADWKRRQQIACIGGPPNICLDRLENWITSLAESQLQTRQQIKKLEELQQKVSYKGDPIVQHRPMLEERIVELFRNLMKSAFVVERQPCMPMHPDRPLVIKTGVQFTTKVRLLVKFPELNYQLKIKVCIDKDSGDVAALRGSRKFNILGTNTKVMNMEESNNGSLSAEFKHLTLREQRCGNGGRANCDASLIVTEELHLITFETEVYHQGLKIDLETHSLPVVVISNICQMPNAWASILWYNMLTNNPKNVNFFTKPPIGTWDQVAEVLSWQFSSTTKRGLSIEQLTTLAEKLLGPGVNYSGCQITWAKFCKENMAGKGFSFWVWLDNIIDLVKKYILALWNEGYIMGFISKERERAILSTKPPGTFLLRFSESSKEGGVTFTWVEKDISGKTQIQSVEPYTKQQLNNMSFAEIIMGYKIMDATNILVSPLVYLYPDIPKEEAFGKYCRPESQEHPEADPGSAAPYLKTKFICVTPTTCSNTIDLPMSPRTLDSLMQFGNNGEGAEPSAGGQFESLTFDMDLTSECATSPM
UniProt P52294: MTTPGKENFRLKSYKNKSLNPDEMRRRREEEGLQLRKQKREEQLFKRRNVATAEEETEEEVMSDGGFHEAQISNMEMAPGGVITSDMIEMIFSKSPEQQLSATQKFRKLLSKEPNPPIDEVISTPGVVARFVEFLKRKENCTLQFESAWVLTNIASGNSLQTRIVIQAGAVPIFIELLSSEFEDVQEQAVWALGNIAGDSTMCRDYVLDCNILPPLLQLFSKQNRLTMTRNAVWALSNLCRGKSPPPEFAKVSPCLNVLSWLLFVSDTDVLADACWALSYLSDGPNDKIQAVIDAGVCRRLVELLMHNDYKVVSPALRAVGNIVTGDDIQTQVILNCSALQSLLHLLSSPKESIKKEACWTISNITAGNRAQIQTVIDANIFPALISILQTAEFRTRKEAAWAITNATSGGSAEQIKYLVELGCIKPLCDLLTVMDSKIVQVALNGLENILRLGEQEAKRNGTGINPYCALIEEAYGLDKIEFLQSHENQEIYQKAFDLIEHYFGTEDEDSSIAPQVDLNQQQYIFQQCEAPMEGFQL

Key:
[1] = target: T1, Thioredoxin-1 (Trx-1), endogenous human (human (endogenous in HT-29, SW480 and human CRC tissue)) (UniProt P10599); assay: co-IP; nuclear and cytosolic extracts of HT-29 cells without or with IL-6; IP with anti-Trx-1 or anti-STAT3; immunoblot
T1 sequence: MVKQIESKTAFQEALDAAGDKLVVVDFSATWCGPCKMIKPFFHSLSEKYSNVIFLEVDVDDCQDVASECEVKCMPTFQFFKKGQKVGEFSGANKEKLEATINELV

[2] = target: T1, Thioredoxin-1 (Trx-1), endogenous human (human (endogenous in HT-29, SW480 and human CRC tissue)); assay: co-IP; human CRC tissue lysates; IP with anti-Trx-1 or anti-STAT3 antibody; immunoblot with anti-pSTAT3, anti-Kpnα1 or anti-Trx-1
[3] = target: T2, WT-Trx-1 (human wild-type Trx-1, lentivirally expressed) (human) (UniProt P10599); assay: co-IP; lysates of HT-29 cells stably expressing WT-Trx-1, MT-Trx-1, shTrx-1 or control vector, without or with IL-6; IP with anti-Trx-1 or anti-Kpnα1 antibody; immunoblot
T2 sequence: T1 sequence

[4] = target: T1, Thioredoxin-1 (Trx-1), endogenous human (human (endogenous in HT-29, SW480 and human CRC tissue)); assay: co-IP; endogenous proteins in total lysates (500 μg) of HT-29 and SW480 cells treated with 20 ng/mL IL-6 or vehicle for 2 h; IP with anti-Trx-1 or anti-STAT3 antibody or control IgG on protein G beads, 1 h at room temperature; immunoblot
[5] = target: T3, Trx-1, endogenous mouse (colon tissue) (mouse (endogenous in colon tissue)) (UniProt P10639); assay: co-IP; lysates of mouse colon tissue (control, AOM/DSS model, AOM/DSS plus PX-12); IP with anti-Trx-1 antibody or control IgG; immunoblot with anti-pSTAT3, anti-Kpnα1 or anti-Trx-1
T3 sequence: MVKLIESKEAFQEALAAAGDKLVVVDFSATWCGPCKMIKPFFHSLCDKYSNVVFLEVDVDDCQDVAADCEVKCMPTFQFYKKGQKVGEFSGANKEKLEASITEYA

Row | binding [1] | binding [2] | binding [3] | binding [4] | binding [5] | Substance
1 | binds | binds | binds | binds | – | pSTAT3 (STAT3 phosphorylated at Tyr705), endogenous human (from UniProt P40763 1-770)
2 | – | – | – | – | binds | karyopherin α1 (Kpnα1), endogenous mouse (colon tissue) (from UniProt Q60960 1-538)
3 | – | – | – | – | binds | pSTAT3, endogenous mouse (colon tissue) (from UniProt P42227 1-770)
4 | – | binds | binds | binds | – | karyopherin α1 (Kpnα1), endogenous human (from UniProt P52294 1-538)
